Experimental data from the supplement of paper PMC10338343.
± gives the standard deviation. The list shows a part of the results, in another mix than the full data. The uncertainty is large for many entries. The list shows a part of the results.

How the values were obtained:
[1] = tested on: MILI (PIWIL2) piRISC loaded with L1MC piRNA (26 nt); test: pre-steady-state target cleavage rate (min^-1); higher = faster piRNA-guided slicing of the target; details: guide: L1MC piRNA 5'p-UAACUAAAUACUAUGCAAGCUGUAGG
Procedure, shortened: (§1)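 Active affinity-purified piRISC (1 nM) loaded with one synthetic guide was mixed with a transcribed, DNA-blocked target RNA library (0.1 nM), with or without 500 nM GTSF1 partner protein, in HEPES–potassium acetate buffer at 33 °C for 0–8 or 0–960 min. Uncleaved targets were sequenced, normalised to depth and to weakly complementary targets, and pooled across three trials, with k3 capped at 0.0001 min^-1. The pre-steady-state cleavage rate was determined with a burst-and-steady-state fit.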

[2] = tested on: MIWI (PIWIL1) piRISC loaded with L1MC piRNA (30 nt); test: as above; details: guide: L1MC piRNA 5'p-UAACUAAAUACUAUGCAAGCUGUAGGUCCU; auxiliary factor: none (no GTSF1)
Procedure, shortened: as §1

[3] = tested on: EfPiwi piRISC loaded with L1MC piRNA (26 nt); test: pre-steady-state target cleavage rate (min^-1); guide: L1MC piRNA 5'p-UAACUAAAUACUAUGCAAGCUGUAGG; MIWI and MILI are mouse PIWI proteins and EfPiwi is from a freshwater sponge; tags in brackets are library labels; higher = faster piRNA-guided slicing of the target
Procedure, shortened: as §1

[4] = auxiliary factor: none (no GTSF1)
[5] = auxiliary factor: 500 nM Ephydatia muelleri Gtsf1
[6] = auxiliary factor: none (no Gtsf1)

Row | Sequence | pre-steady-state target cleavage rate [1, 4] | pre-steady-state target cleavage rate [2] | pre-steady-state target cleavage rate [3, 5] | pre-steady-state target cleavage rate [3, 6] | pre-steady-state target cleavage rate ([1]; auxiliary factor: 500 nM mouse GTSF1)
1 | UCCUGCUACAGCUUGCAUAGUAAAAACAAA | 0.000901 ± 0.0058 | 0.000576 ± 0.0095 | 0.00179 ± 0.0029 | 0.000294 ± 0.024 | –
2 | UCCUCCUACAGCUUGCAAAGUAUUUUCAAA | 0.0014 ± 0.0036 | 0.00213 ± 0.004 | 0.00286 ± 0.0028 | 0.00046 ± 0.014 | –
3 | UCCUGCUACAGCUUGCAUACUAUUUACAAA | 0.000946 ± 0.0066 | 0.00204 ± 0.0031 | 0.00175 ± 0.0032 | 0.000396 ± 0.011 | –
4 | UCCUGGUACAGCUUCGAUAGUAUUUACAAA | 0.000879 ± 0.0054 | 0.000864 ± 0.0049 | 0.00595 ± 0.0049 | 0.000395 ± 0.019 | –
5 | UCCUGGAACAGCUUGCUAAGUAUUUUCAAA | 0.000859 ± 0.0076 | 0.000813 ± 0.009 | 0.00134 ± 0.0073 | 0.00061 ± 0.0088 | –
6 | UCCUCCUACACGAUGCAUAGUAUUUACAAA | 0.000892 ± 0.0064 | 0.000779 ± 0.0094 | 0.00277 ± 0.0035 | < 0.0001 | –
7 | UCCUCCUACACCUUCCAUAGUAUUUAGUUA | 0.000829 ± 0.0062 | 0.0014 ± 0.0031 | 0.00329 ± 0.0018 | < 0.0001 | –
8 | UCCUGGUACAGCUUGCAUUCAAUUUAGAAA | 0.00107 ± 0.0069 | 0.000812 ± 0.0078 | 0.000354 ± 0.0096 | 0.000203 ± 0.03 | –
9 | UCCUGGUACAGGAAGCAUAGUAUUUUCAAA | 0.000572 ± 0.01 | 0.000507 ± 0.012 | 0.000368 ± 0.011 | 0.000529 ± 0.012 | –
10 | UCCUGGAUGUCCAUGCAUACUAUUUAGUUA | 0.0014 ± 0.0056 | 0.000797 ± 0.013 | 0.000618 ± 0.0046 | 0.000294 ± 0.023 | –
11 | UCCUGCUACAGCUUGCAUAGAAUUUUCAAA | 0.00113 ± 0.0069 | 0.00097 ± 0.0054 | 0.00141 ± 0.0034 | < 0.0001 | –
12 | UCCUGGAACAGCUUGCAUAGUUAAUUCAAA | 0.000916 ± 0.0055 | 0.00109 ± 0.0064 | 0.00147 ± 0.0034 | 0.000124 ± 0.028 | –
13 | UCCUCCUACAGGAUGCAUAGUAUUUAGAAA | 0.00152 ± 0.0034 | 0.00118 ± 0.0031 | 0.00396 ± 0.0014 | 0.000262 ± 0.017 | –
14 | UCCUGGAUGAGCUUGCAUAGUAUUAUCUAA | 0.000175 ± 0.016 | 0.00123 ± 0.0046 | 0.000843 ± 0.0034 | 0.000684 ± 0.01 | –
15 | UCCUGGUACAGCUUGCAUUCAAUUUAGUAA | 0.00117 ± 0.007 | 0.000255 ± 0.0096 | 0.000448 ± 0.007 | 0.000418 ± 0.019 | –
16 | UCCUGCUACACGUUGCAUAGUAUUUAGAAA | 0.000793 ± 0.011 | 0.00136 ± 0.0035 | 0.00142 ± 0.003 | 0.000277 ± 0.023 | –
17 | UCCUGCUACAGCUUGCAUACAAUUUAGUAA | 0.000933 ± 0.0061 | 0.00133 ± 0.0067 | 0.00123 ± 0.0033 | 0.000395 ± 0.017 | –
18 | UCCUGGAUGUCGAAGCAUAGUAUUCUAGUUA | 0.00158 ± 0.0033 | 0.000463 ± 0.011 | 0.000175 ± 0.023 | 0.00013 ± 0.023 | –
19 | UCCUGGAUCAGCAACCAUAGUAUUUACAAA | – | 0.000239 ± 0.019 | 0.000292 ± 0.012 | 0.000269 ± 0.027 | 0.0023 ± 0.0054
20 | UCCUGGUACACGAUGCAUAGUAUUUAGUAA | 0.00194 ± 0.0044 | 0.00143 ± 0.0061 | 0.00214 ± 0.0033 | 0.000625 ± 0.013 | –
21 | UCCUGGAUGUCGUUGCAUAGUAUUUAGAAA | 0.000997 ± 0.0058 | 0.00125 ± 0.0049 | 0.000522 ± 0.0081 | 0.000196 ± 0.037 | –
22 | UCCUGGAUGAGCUUCGUUAGUAUUUACAAA | 0.000599 ± 0.0083 | 0.000681 ± 0.0067 | 0.000142 ± 0.029 | 0.000343 ± 0.021 | –
23 | UCCUGGAUGUGCUUGCAUAGUAUAUAGAAA | 0.000558 ± 0.012 | 0.00127 ± 0.0081 | 0.00066 ± 0.0052 | 0.000482 ± 0.016 | –

Row | Sequence | pre-steady-state target cleavage rate [1, 4] | pre-steady-state target cleavage rate [2] | pre-steady-state target cleavage rate [3, 5] | pre-steady-state target cleavage rate [3, 6] | pre-steady-state target cleavage rate ([1]; auxiliary factor: 500 nM mouse GTSF1)
24 | UCCUGGAUGUCGAUGCAAAGUAAUUAGUUA | 0.00064 ± 0.0081 | 0.000362 ± 0.012 | 0.000338 ± 0.0078 | 0.000229 ± 0.034 | –
25 | UCCUGCUACAGCUUGCAAUCAUAAAUCAAA [g14:g25:cont:t1A] | 0.000277 ± 0.01 | 0.000314 ± 0.013 | 0.000448 ± 0.011 | < 0.0001 | –
26 | UCCUGGAACAGCUACCAUAGUAUUUAGAAA | 0.000738 ± 0.0079 | 0.000817 ± 0.0079 | 0.00138 ± 0.0029 | 0.000488 ± 0.012 | –
27 | UCCUGGAUGAGCUUGCAUACAAUUUACAAA | 0.000734 ± 0.0083 | 0.000909 ± 0.0081 | 0.000304 ± 0.013 | 0.000162 ± 0.05 | –
28 | UCCUGGAUGAGCAUCCAUAGUAUUUAGUUA | 0.000885 ± 0.01 | 0.000192 ± 0.025 | 0.00201 ± 0.0034 | 0.000125 ± 0.037 | –
29 | UCCUGGAUGUGCUUGCAUAGAUAUUAGUAA | 0.000656 ± 0.01 | 0.000643 ± 0.012 | 0.000346 ± 0.0099 | 0.000659 ± 0.016 | –
30 | UCCUGGAUGUGCUUGCAUAGUAUAUUGUUA | 0.000861 ± 0.0088 | 0.003 ± 0.0031 | 0.00234 ± 0.003 | 0.000742 ± 0.012 | –
31 | UCCUCCUACAGCAUCCAUAGUAUUUAGUUA | 0.0025 ± 0.0029 | 0.00149 ± 0.0025 | 0.00359 ± 0.0017 | 0.000318 ± 0.015 | –
32 | UCCUGGUACAGCUUGGUUAGUAUUUUCAAA | 0.00139 ± 0.008 | 0.000564 ± 0.014 | 0.000396 ± 0.019 | 0.000357 ± 0.04 | –
33 | UCCUGGAACACCUAGCAUAGUAUUUAGUUA | 0.0025 ± 0.0039 | 0.0029 ± 0.0035 | 0.00601 ± 0.0036 | 0.000569 ± 0.012 | –
34 | UCCUGGAUGUCCUUGCUUAGUAUUUACUUA | 0.00246 ± 0.0028 | 0.0019 ± 0.0028 | 0.000359 ± 0.0079 | 0.000244 ± 0.021 | –
35 | UCCUCCUACAGCUUGCAUAGUAUUAACAAA | 0.00139 ± 0.0042 | 0.00138 ± 0.0056 | 0.00454 ± 0.0033 | 0.000396 ± 0.012 | –
36 | UCCUGCUACAGCUUGGUAAGUAUUUACAAA | 0.00074 ± 0.0067 | 0.000245 ± 0.013 | 0.000415 ± 0.0087 | 0.000338 ± 0.017 | –
37 | UCCUGGUACAGCUUGGAUAGUAUUUAGAAA | 0.00113 ± 0.0046 | 0.00244 ± 0.0036 | 0.00277 ± 0.0022 | 0.000319 ± 0.026 | –
38 | UCCUGGAUCAGCUUGCAUAGAUUUUAGAAA | 0.000646 ± 0.007 | 0.00115 ± 0.0066 | 0.0011 ± 0.0029 | 0.000475 ± 0.011 | –
39 | UCCUGGAUGUCCUUCCAUAGUAUUUAGAUA | 0.000273 ± 0.015 | 0.00046 ± 0.01 | 0.000376 ± 0.009 | 0.000105 ± 0.076 | –
40 | UCCUGCUACAGCUUCCAUAGUAUUAAGUUA | 0.000559 ± 0.0092 | 0.000731 ± 0.0094 | 0.00173 ± 0.0021 | 0.000157 ± 0.036 | –
41 | UCCUGGAUGUCGAUGCAUAGUAUUUAGUGA | 0.00221 ± 0.0038 | 0.00103 ± 0.0064 | 0.000844 ± 0.006 | 0.000498 ± 0.015 | –
42 | UCCUGCUACAGCUUGCAUAGAUUUUAGAAA | 0.000462 ± 0.0086 | 0.00085 ± 0.0066 | 0.00168 ± 0.0031 | 0.000185 ± 0.024 | –
43 | UCCUGGUACAGCUUGCAUAGUAUUAAGAAA | 0.000901 ± 0.0066 | 0.00164 ± 0.0034 | 0.00387 ± 0.0017 | 0.000824 ± 0.012 | –
44 | UCCUCCUACAGCUUGCAUAGUAAAUUCAAA | 0.000994 ± 0.006 | 0.00025 ± 0.014 | 0.00279 ± 0.0021 | 0.000407 ± 0.011 | –
45 | UCCUGGAUGUCCUUGCAUAGUAUUUAGCUA | 0.000722 ± 0.0067 | 0.00212 ± 0.003 | 0.000845 ± 0.004 | 0.000299 ± 0.021 | –

An excerpt of these results, as comma-separated lines.
Row,Sequence,"pre-steady-state target cleavage rate [1, 4]",pre-steady-state target cleavage rate [2],"pre-steady-state target cleavage rate [3, 5]","pre-steady-state target cleavage rate [3, 6]",pre-steady-state target cleavage rate ([1]; auxiliary factor: 500 nM mouse GTSF1)
33,UCCUGGAACACCUAGCAUAGUAUUUAGUUA,0.0025 ± 0.0039,0.0029 ± 0.0035,0.00601 ± 0.0036,0.000569 ± 0.012,–
34,UCCUGGAUGUCCUUGCUUAGUAUUUACUUA,0.00246 ± 0.0028,0.0019 ± 0.0028,0.000359 ± 0.0079,0.000244 ± 0.021,–
35,UCCUCCUACAGCUUGCAUAGUAUUAACAAA,0.00139 ± 0.0042,0.00138 ± 0.0056,0.00454 ± 0.0033,0.000396 ± 0.012,–
